{"sequences": {"note": "Chains of the proteins cited; added tags and fusions are not shown.", "UniProt P53350, whole entry, looked up": "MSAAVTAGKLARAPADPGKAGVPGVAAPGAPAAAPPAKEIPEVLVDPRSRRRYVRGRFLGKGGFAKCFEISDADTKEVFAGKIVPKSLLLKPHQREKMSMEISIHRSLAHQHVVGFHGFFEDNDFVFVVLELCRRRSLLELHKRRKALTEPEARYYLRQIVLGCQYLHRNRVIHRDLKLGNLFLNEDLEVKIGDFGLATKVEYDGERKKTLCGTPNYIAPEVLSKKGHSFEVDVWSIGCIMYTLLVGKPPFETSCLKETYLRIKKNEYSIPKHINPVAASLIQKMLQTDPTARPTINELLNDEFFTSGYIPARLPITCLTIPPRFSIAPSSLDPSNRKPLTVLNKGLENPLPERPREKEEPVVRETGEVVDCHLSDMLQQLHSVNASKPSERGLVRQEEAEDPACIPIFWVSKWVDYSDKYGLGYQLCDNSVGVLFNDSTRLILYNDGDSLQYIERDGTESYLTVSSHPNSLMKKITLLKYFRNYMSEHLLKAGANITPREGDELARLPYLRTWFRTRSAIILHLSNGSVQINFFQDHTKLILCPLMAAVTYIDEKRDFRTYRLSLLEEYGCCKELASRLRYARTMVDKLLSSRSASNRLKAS"}, "source": "PubChem BioAssay AID720504", "about": "(National Center for Advancing Translational Sciences (NCATS), 2013)", "note": "About 10,000 (2.8%) of roughly 360,000 compounds were called active. Inconclusive means that the source gave no clear call. Such entries were picked first, then a sample of the others. Calls follow the shape of the dose curve; as a rule, active = well fitted inhibition curve with a large enough effect; inconclusive = small, poorly fitted or top-dose-only effect; inactive = flat fitted curve, though single readings scatter. Potencies of inconclusive entries are doubtful fits and often do not repeat. % is scaled to controls: 0 for no effect and ±100 for the full control effect; potency is read from the fitted curve at half-maximal effect."}
{"target": "Serine/threonine-protein kinase PLK1 (Homo sapiens) (UniProt P53350)", "assay": "qHTS for Inhibitors of PLK1-PDB (polo-like kinase 1 - polo-box domain): Primary Screen; also: nearly all actives have a fitted effect of over 65% in size; as to max response, negative = inhibition: series mostly up to about 57 µM", "conditions": "Plk1 PBD binding of FITC phosphopeptide, fluorescence polarization", "source_text": "The polo-like kinase 1 (Plk1) is a member of a conserved subfamily of serine / threonine protein kinases that plays a pivotal roles in cell proliferation. It has a C-terminal non-catalytic region called the polo-box domain (PBD) that plays a crucial role in the subcellular localization of the Plk1. […] Furthermore, depletion of the overexpressed Plk1 by RNAi efficiently induces apoptotic cell death in cancer and reduces tumor growth in mouse xenograft models. Thus, targeting Plk1 is an appealing strategy for anti-cancer therapy. Therefore, this project aimed to screen the Molecular Libraries Small Molecule Repository (MLSMR) using a novel approach to find inhibitors that target the Plk1 PBD instead of the conventional N-terminal catalytic domain. This project employed a fluorescence polarization (FP) assay using a FITC-conjugated phospho-9-mer (p-9-mer) peptide and purified human Plk1 PBD protein. The identified small molecule inhibitors of Plk1 PBD can then further be developed into useful tools for biomedical and clinical research that complements or replaces current relevant disease therapy. NIH Chemical Genomics Center [NCGC] NIH Molecular Libraries Probe Centers Network [MLPCN] MLPCN Grant: MH100728 Assay Submitter (PI): Kyung Lee, NCI\nFour microliter of 25 nM FITC-p-9-mer + 60 nM Plk1 PBD in buffer solution (final concentrations 25 nM and 60 nM respectively) or 4 uL of 25 nM FITC-p-9-mer (final concentration 25 nM) in buffer will be dispensed into a 1,536 Greiner medium-binding black solid plate. Small molecules at final concentrations of 18 nM to 57 uM and positive control phospho-9-mer (sequence: Ac-PPLHSpTAI-NH2) at final concentrations 26 nM to 57 uM and phospho-13-mer (sequence: Ac-[…]pTAI-NH2) at final concentrations of 1 nM to 2.3 uM will be pin-transferred (23 nL) to the plate via a Kalypsys pin-tool robotics equipped with a 1,536-pin array. The reaction plate will be centrifuged for 1 min at 1000 rpm and incubated at room temperature for 10 min. The FITC fluorescence signals will be read using the PerkinElmer ViewLux plate reader at 480 / 20 nm excitation and 540 / 20 nm S and P polarization emission wavelengths. Reagent bottles will be kept submerged into 4 °C recirculating chiller bath and all liquid lines will be covered with aluminum foil to minimize degradation. Library plates will be screened starting from the lowest to the highest concentrations to minimize compound carryover. Vehicle only plates, with DMSO being pin-transferred instead of compound solutions, will be included regularly throughout the screen to record any systematic shifts in assay signal."}
{"smiles": "CN(C#N)c1nc(Cl)nc(Nc2cccc(Cl)c2)n1", "max response, negative = inhibition": "inactive: -6.72%"}
{"smiles": "CC(C)(C)c1ccc(-n2nc(C(N)=O)c(O)cc2=O)cc1", "Potency": "active: 4.74 µM"}
{"smiles": "O=S(=O)(Nc1nccs1)c1ccc(Nc2nnc(-c3ccccc3)c3ccccc23)cc1", "max response, negative = inhibition": "inconclusive: -36.9% [inhibitor]"}
{"smiles": "COc1ccc(C(=O)NNC(=S)NC2CCCCC2)cc1OC", "max response, negative = inhibition": "inactive: -12.8%"}
{"smiles": "CC[C@]12c3[nH]c4cc(-c5ccco5)ccc4c3CCN1C(=O)[C@@H](CC(=O)NCCc1ccccn1)C[C@@H]2C(=O)N1CCN(C(=O)c2ccco2)CC1", "Potency": "inconclusive: 18.9 µM [inhibitor, single point]"}
{"smiles": "Cc1ccc(NS(=O)(=O)c2c(C)[nH]c(C)c2C(=O)N2CCCCC2)cc1C", "Potency": "inconclusive: 23.8 µM [inhibitor, single point]"}
{"smiles": "CC1(C)CC(=O)/C(=C(\\O)CCCN2C(=O)c3ccccc3C2=O)C(=NCCO)C1", "Potency": "inconclusive: 29.9 µM [inhibitor, single point]"}
{"smiles": "O=C(CNC(=O)Cc1ccccc1)N=Nc1c(O)n(Cc2ccc3c(c2)OCO3)c2ccccc12", "max response, negative = inhibition": "inactive: -6.35%"}
{"smiles": "Cc1cccc2sc(N(CCCN(C)C)C(=O)c3ccc(C(=O)c4ccccc4)cc3)nc12", "Potency": "inconclusive: 23.8 µM [inhibitor, single point]"}
{"smiles": "COc1ccc2c(c1)c(=O)oc1cc(OCC(=O)N3CCC(C)CC3)ccc12", "max response, negative = inhibition": "inactive: -28.6%"}
{"smiles": "COc1ccc2c(c1)C(=NNc1ccc(C(=O)O)cc1)c1cc(OC)ccc1-2", "Potency": "inconclusive: 26.7 µM [inhibitor, single point]"}
{"smiles": "O=C(CN1CCN(c2ccc(F)cc2)CC1)N(C1CCCC1)C1CCS(=O)(=O)C1", "note": "(stereo not given)", "max response, negative = inhibition": "inactive: -6.83%"}
{"smiles": "Cc1ccc(NC(=O)c2cc(NC(=O)/C=C\\C(=O)O)ccc2N2CCCCC2)cc1", "max response, negative = inhibition": "inconclusive: -34.4% [inhibitor]"}
{"smiles": "Nc1c(-c2ccccc2)c(CSc2nc3ccccc3[nH]2)nn1-c1ccc(Cl)cc1", "Potency": "inconclusive: 67 µM [inhibitor, partial curve]"}
{"smiles": "CCCCn1c(N)c(N(CCOC)C(=O)c2ccc(-c3ccc(Cl)cc3)o2)c(=O)[nH]c1=O", "max response, negative = inhibition": "inconclusive: -32.2% [inhibitor]"}
{"smiles": "CO[C@@H]1CN(C)C(=O)c2ccc(NC(=O)c3ccccc3F)cc2OC[C@@H](C)N(CC2CCOCC2)C[C@@H]1C", "max response, negative = inhibition": "inactive: -6.38%"}
{"smiles": "CN(C)c1ccc(CNC(=O)CCNS(=O)(=O)c2cc(Br)cnc2N)cc1", "Potency": "active: 26.7 µM"}
{"smiles": "COc1ccc(/C=C2\\CCc3ccccc3C2=O)cc1OC", "max response, negative = inhibition": "inactive: 0.979%"}
{"smiles": "S=C1NC2=C(CCCC2=C2SCCS2)C(c2ccccc2)N1", "note": "(stereo not given)", "Potency": "inconclusive: 23.8 µM [inhibitor, partial curve]"}
{"smiles": "C=CCSC1=C(C#N)C(c2ccccc2OCC)C(C#N)C(=O)N1", "note": "(stereo not given)", "Potency": "active: 26.7 µM"}
{"smiles": "Cc1ccc(C(C(=O)NC2CCCCC2)N(Cc2ccccc2)C(=O)Cc2c[nH]c3ccccc23)o1", "note": "(stereo not given)", "max response, negative = inhibition": "inactive: -0.525%"}
{"smiles": "O=C(COC(=O)C(Cc1ccccc1)NC(=O)c1cccs1)NCc1ccccc1", "note": "(stereo not given)", "max response, negative = inhibition": "inactive: 1.13%"}
{"smiles": "COCCNC(=O)/C(C#N)=C/c1c(N2CCN(c3ccccc3)CC2)nc2c(C)cccn2c1=O", "Potency": "inconclusive: 29.9 µM [inhibitor, single point]"}
{"smiles": "COc1ccc(C2/C(=C(/O)c3ccccc3)C(=O)C(=O)N2c2ccccn2)cc1OC", "note": "(stereo not given)", "Potency": "inconclusive: 21.2 µM [inhibitor, partial curve]"}
{"smiles": "CC(C)CC1NC(=O)c2cc3ccccc3cc2-n2c1nc1ccc(Cl)cc1c2=O", "note": "(stereo not given)", "max response, negative = inhibition": "inactive: -4.79%"}
{"smiles": "O=C1c2oc3ccc(Br)cc3c(=O)c2C(c2cccc(F)c2)N1CCO", "note": "(stereo not given)", "Potency": "inconclusive: 29.9 µM [inhibitor, partial curve]"}
{"smiles": "Cc1ccc(Nc2n[nH]c(=S)s2)cc1C", "Potency": "inconclusive: 21.2 µM [inhibitor, partial curve]"}
{"smiles": "O=C(NC(=S)N1CCCc2ccccc21)c1ccc(Br)cc1", "Potency": "inconclusive: 26.7 µM [inhibitor, partial curve]"}
{"smiles": "O=C1NC[C@H](CCCCN2C[C@H](Cc3ccccc3)N(Cc3ccccc3)C(=O)C2=O)N(CCc2ccc(O)cc2)C1=O", "max response, negative = inhibition": "inactive: 3.35%"}
{"smiles": "CC(=O)Nc1ccc(S(=O)(=O)Nc2nc3ccccc3nc2Nc2cccc(S(N)(=O)=O)c2)cc1", "Potency": "inconclusive: 67 µM [inhibitor, single point]"}
{"smiles": "NC(=O)c1ccc[n+](CC(=O)Nc2ccccc2C(=O)O)c1", "Potency": "inconclusive: 29.9 µM [inhibitor, single point]"}
{"smiles": "COc1ccc(N=C2C(=Nc3ccc(OC)cc3)N(c3ccc(OC)cc3)C(=S)N2C(=O)c2ccc(OC)cc2)cc1", "max response, negative = inhibition": "inactive: -9.21%"}
{"smiles": "Clc1ccccc1Cn1nnc2c(Nc3ccccc3)ncnc21", "Potency": "inconclusive: 8.44 µM [inhibitor, single point]"}
{"smiles": "CC(=O)C1=C(C)NC(SCC(=O)c2ccc(Cl)cc2)=C(C#N)C1CC(C)C", "note": "(stereo not given)", "max response, negative = inhibition": "inactive: -26.1%"}
{"smiles": "CC(=O)c1cccc(Nc2nc(-c3sc(N)nc3C)cs2)c1", "Potency": "active: 21.2 µM"}
